In all, about 360,000 compounds went through this assay and about 7,500 (2.1%) were called active. The inconclusive results got no clear call from the source; some entries with a clear call stand among them for comparison. Calls follow the shape of the dose curve; as a rule, active = well fitted inhibition curve with a large enough effect; inconclusive = small, poorly fitted or top-dose-only effect, or effect the other way; inactive = flat fitted curve, though single readings scatter. Potencies beside an inconclusive call are fits to weak or partial responses and may not hold up.
assay: Nrf2 qHTS screen for inhibitors; settings: A549 ARE-Fluc reporter, luciferase luminescence, 18-24 h; activity change, negative = inhibition: at 46 µM (top of the series); also: nearly all actives have a fitted effect of over 60% in size
In short: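 Quantitative HTS in A549 cells stably bearing an antioxidant response element-firefly luciferase construct. Inhibition of Nrf2-driven transcription was scored by luminescence after 18-24 h of compound exposure at 37 °C.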
% is scaled to controls: 0 for no effect and ±100 for the full control effect; potency is read from the fitted curve at half-maximal effect.

SMILES	Potency	activity change, negative = inhibition
Cc1ccccc1CSc1cn(CC(=O)N2CCCCC2)c2ccccc12	inconclusive: 29.1 µM [falling, single point]	
Cc1cnc(C(=O)NCCc2ccc(C(F)(F)F)cc2)cn1		inactive: -11.7%
CCOC(=O)c1c(C)oc2nc(C)nc(NCC3CCN(Cc4ccc(C)cc4)CC3)c12	inconclusive: 2.06 µM [activator, partial curve, poor fit]	
O=C(COc1ccc(F)cc1)Nc1nc(-c2ccccn2)cs1		inactive: -16.1%
Fc1ccc(Nc2ccnc(C(F)(F)F)c2)cc1		inactive: -7.16%
O=C(Cn1c(=O)oc2cccnc21)Nc1ccccc1Oc1ccc(Cl)cc1Cl	inconclusive: 16.4 µM [activator, partial curve]	
Cc1cccc(N2C(=O)CN(Cc3cccs3)C2=S)c1	inconclusive: 4.11 µM [falling, partial curve, poor fit]	
COc1ccc2sc(-c3ccc(SC)cc3)c(-c3ccc(O)cc3)c2c1	inconclusive: 29.1 µM [falling, single point]	
CC(NC(=O)c1ccc2c(=O)n3c(nc2c1)CCC3)c1ccc(S(N)(=O)=O)cc1 (centres undefined)		inactive: 11.9%
Cn1c(C(=O)Nc2ccccc2)cc2sccc21	inconclusive: 6.51 µM [activator, partial curve]	
CCCCCCCn1c(=N)n(CC(O)c2ccco2)c2ccccc21 (centres undefined)		inactive: 1.14%
Cc1ccc(N(C(=O)CNC(=O)c2ccco2)C(C(=O)NCC2CCCO2)c2ccccc2)cc1C (centres undefined)	inconclusive: 18.4 µM [falling, partial curve, poor fit]	
COc1ccc(C(=O)c2cnc3ccccc3c2-c2ccccc2)cc1	inconclusive: 29.1 µM [falling, single point]	
CCOc1ccc(NC(=O)Cn2c(=O)n(CCCCCC(=O)NCc3ccccc3)c(=O)c3sccc32)cc1	inconclusive: 16.4 µM [falling, single point]	
O=C1C(Cc2ccccc2)Nc2ncnc(N3CCCCC3)c2N1Cc1ccc(Br)cc1 (centres undefined)	inconclusive: 20.6 µM [falling, single point]	
CCOC(=O)C1CCN(Cc2ccc(O)c3ncccc23)CC1	inconclusive: 8.2 µM [falling, partial curve, poor fit]	
Cc1cccc(NC(=O)c2nc[nH]c2C(=O)NCCCCCNC(=O)OC(C)(C)C)c1	active: 20.6 µM	
COc1ccc(S(=O)(=O)Nc2c(C)nc3nc[nH]n3c2=O)cc1	inconclusive: 29.1 µM [activator, single point]	
Cc1ccnc(NC(=O)c2ccc(C(=O)c3ccccc3)cc2)c1	inconclusive: 0.58 µM [activator, partial curve, poor fit]	
CCC(c1nnnn1CC1CCCO1)N(CCCO)Cc1cc2cccc(C)c2[nH]c1=O (centres undefined)		inactive: 6.63%
COC(=O)[C@@H](Cc1c[nH]c2ccccc12)NCc1ccc(B(O)O)cc1	inconclusive: 10.3 µM [activator, partial curve]	
CC(C)C[C@@H](CN1CCCC1CN1C(=S)NC[C@@H]1Cc1ccc(O)cc1)N1C[C@H](Cc2ccc(O)cc2)N(CCc2ccccc2)C1=S (some centres undefined)	inconclusive: 23.1 µM [falling, single point]	

SMILES	Potency	activity change, negative = inhibition
CCCc1ccc(OCC(=O)Nc2sc(C(=O)OCC)c(C)c2C(=O)OCC)cc1	inconclusive: 6.51 µM [falling, single point]	
CC(=O)c1ccc(OCc2cc(C(=O)N(C)Cc3ccccn3)no2)cc1	inconclusive: 20.6 µM [activator, single point]	
CCOc1cc2c(C#N)c(N(CC)CC)nc(N)c2c(N)n1		inactive: 4.14%
N#CC1=C(NC=NCc2ccccc2)Oc2ccc3ccccc3c2C1c1ccccc1 (centres undefined)	active: 18.4 µM	
Cc1ccc(C)c(N2CCN(S(=O)(=O)c3ccc4c(c3)C(C(C)C)C(=O)N4)CC2)c1 (centres undefined)	inconclusive: 23.1 µM [falling, partial curve, poor fit]	
O=C(C1=C[C@@H](c2ccc(C(F)(F)F)cc2)C[C@@H](OCCCCO)O1)N1CCN(Cc2ccc3c(c2)OCO3)CC1	inconclusive: 10.3 µM [falling, partial curve, poor fit]	
COc1ccc(-n2c(=S)[nH]c(=O)c3cccnc32)cc1	inconclusive: 20.6 µM [falling, partial curve]	
O=C(Cc1cc(C(=O)O)c2ccccc2n1)Nc1ccccc1	inconclusive: 20.6 µM [activator, single point]	
O=C1CCc2cc(S(=O)(=O)Nc3ccccc3)ccc2N1		inactive: -1.51%
CCOC(=O)C(C)(C)n1nnc(-c2ccc([N+](=O)[O-])cc2)n1	inconclusive: 11.6 µM [activator, partial curve, poor fit]	
Cc1cc(C)nc(NC(=O)/C=C/c2ccc(Cl)cc2)n1	inconclusive: 20.6 µM [activator, single point]	
COc1cccc(-c2nc(CS(=O)(=O)CC(=O)N3CCN(c4cc(C)ccc4C)CC3)c(C)o2)c1	active: 2.59 µM	
CCOC(=O)[C@H]1[C@H]2COc3ccc(C)cc3[C@@H]2N2C(=O)CN(Cc3ccco3)C(=O)[C@@]12C		inactive: 8.26%
Cc1ccc(C(C(=O)NCc2ccco2)N(C(=O)CNC(=O)c2cccs2)c2c(C)cc(C)cc2C)cc1 (centres undefined)	inconclusive: 4.61 µM [falling, full curve, poor fit]	
CCc1ccc(C2CC(=O)c3c([nH]c(C(=O)OC4CCCC4)c3C)C2)cc1 (centres undefined)		inactive: 18.3%
CC(C)C(=O)NC(=S)Nc1ccc(S(=O)(=O)NC2CCCCC2)cc1	inconclusive: 14.6 µM [falling, single point]	
Cc1cc(-c2nc3cccnc3s2)ccc1NS(=O)(=O)c1cccs1	inconclusive: 23.1 µM [activator, single point]	
COC(=O)[C@@]12CCCCN1[C@H](c1ccc(-c3ccccc3)cc1)[C@H]1C(=O)N(C)C(=O)[C@H]12	inconclusive: 23.1 µM [falling, single point]	
O=C(Nc1nc2c(F)cc(F)cc2s1)c1ccccn1	inconclusive: 0.206 µM [activator, full curve, poor fit]	
COc1ccc2c(c1)cc1c(=O)n(CC(=O)NC(C)CCc3ccccc3)nc(C)n12 (centres undefined)	inconclusive: 6.51 µM [activator, single point]	
COC(=O)c1ccccc1NC(=O)c1cc(-c2ccc(O)cc2)on1		inactive: 9.25%
CC(C)C[C@@H]1NC(=O)[C@H](C(C)C)NC(=O)c2cc([N+](=O)[O-])cc(I)c2NCC[C@@H](C(N)=O)NC1=O		inactive: 6.22%

Five of these compounds in another layout.
SMILES | Potency | activity change, negative = inhibition
COc1ccc2sc(-c3ccc(SC)cc3)c(-c3ccc(O)cc3)c2c1 | inconclusive: 29.1 µM [falling, single point] | 
CC(NC(=O)c1ccc2c(=O)n3c(nc2c1)CCC3)c1ccc(S(N)(=O)=O)cc1 (centres undefined) |  | inactive: 11.9%
Cn1c(C(=O)Nc2ccccc2)cc2sccc21 | inconclusive: 6.51 µM [activator, partial curve] | 
CCCCCCCn1c(=N)n(CC(O)c2ccco2)c2ccccc21 (centres undefined) |  | inactive: 1.14%
Cc1ccc(N(C(=O)CNC(=O)c2ccco2)C(C(=O)NCC2CCCO2)c2ccccc2)cc1C (centres undefined) | inconclusive: 18.4 µM [falling, partial curve, poor fit] | 

Additional results follow.

SMILES	Potency	activity change, negative = inhibition
Clc1cccc(Cl)c1Cn1cnc2c(N3CCCCCC3)ncnc21	inconclusive: 29.1 µM [falling, single point]	
CCC(=O)N1CCN(c2ccc(NC(=S)NC(=O)c3cccc([N+](=O)[O-])c3)cc2)CC1	inconclusive: 20.6 µM [falling, partial curve]	
Cn1c(-c2ccccc2F)cc2onc(-c3ccccc3)c2c1=O	inconclusive: 2.59 µM [activator, partial curve]	
O=C(CCl)N(C1CCCC1)C1CCS(=O)(=O)C1 (centres undefined)	active: 20.6 µM	
Cn1c(N)c(C(=O)CSc2nn(-c3ccccc3)c(=S)s2)c(=O)n(C)c1=O	active: 7.31 µM	
Cc1ccc(-n2ncc3c(Nc4cccc(C(=O)O)c4)ncnc32)cc1	inconclusive: 6.51 µM [activator, partial curve]	
Cc1nc2ccc(NS(=O)(=O)c3cccc([N+](=O)[O-])c3)cc2s1	active: 18.4 µM	
Cc1cccc(/C=C/c2onc(C)c2S(=O)(=O)N2CCC(C(=O)N3CCCCC3)CC2)c1	inconclusive: 18.4 µM [falling, partial curve, poor fit]	
COc1ccc(-c2[nH]c(-c3ccc(Cl)cc3)nc2SCC(=O)NCC2CCCO2)cc1 (centres undefined)	inconclusive: 29.1 µM [falling, partial curve, poor fit]	
CCCCn1cnc2cc(NCc3ccccc3Cl)ccc21	inconclusive: 23.1 µM [falling, partial curve, poor fit]	
COc1ccc(Nc2oc(COc3ccc(OC)cc3)nc2C#N)cc1	inconclusive: 20.6 µM [falling, single point]	
COc1cc(OC)c(C2C3=C(CCCC3=O)Nc3nc4ccccc4n32)cc1OC (centres undefined)		inactive: -19%
O=C(COC(=O)CCc1c[nH]c2ccccc12)NCc1ccc2c(c1)OCO2	inconclusive: 7.31 µM [activator, partial curve, poor fit]	
COc1ccc(C(=O)COC(=O)CCCn2c(=O)oc3ccccc32)cc1	inconclusive: 11.6 µM [activator, partial curve]	
COCC(=O)N1CCc2ccc(NC(=O)c3ccc(C(F)(F)F)cc3)cc2C1	inconclusive: 29.1 µM [falling, single point]	
Cc1ccc(NC(=O)c2ccccc2O)cc1	inconclusive: 4.61 µM [activator, partial curve, poor fit]	
Cc1ccc2[nH]c(=O)c(CN(Cc3ccccc3Cl)C(=O)N3CCOCC3)cc2c1	inconclusive: 11.6 µM [activator, partial curve]	
CN(c1ccccc1)S(=O)(=O)c1cc(C(=O)OCC(=O)c2c(N)n(C)c(=O)n(C)c2=O)ccc1Cl	inconclusive: 18.4 µM [falling, partial curve]	
CC(=O)N1CCCc2cc(S(=O)(=O)N3CCCC(C(=O)N4CCN(c5ccccc5)CC4)C3)ccc21 (centres undefined)	active: 13 µM	
Cc1cc(C)c2c(CC(=O)Nc3ccc(S(=O)(=O)Nc4nc(C)cc(C)n4)cc3)coc2c1		inactive: -15.6%

Source: PubChem BioAssay AID504444 (National Center for Advancing Translational Sciences (NCATS), 2011)
